Laboratory results: article PMC3355152
The comparison behind a weaker result is the experiment's own reference, which may not be listed here. Protein sequences can lack the tags named with them.

Key:
[1] = biological target: T1, SpLsm4N (Schizosaccharomyces pombe) (UniProt O14352); experiment: fluorescence anisotropy; settings: Kd not determinable, very weak binding, up to 100 uM protein; FA: 20 mM Hepes pH 7.5, 100 mM NaCl, 25 C, 0.1 uM RNA; recombinant protein; residues 1-91; protein details: N-terminal His6; label: 5' 6-FAM
T1 sequence (looked up): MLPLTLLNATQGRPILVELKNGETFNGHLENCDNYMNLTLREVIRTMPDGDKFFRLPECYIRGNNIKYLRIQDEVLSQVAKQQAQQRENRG

[2] = biological target: T1, SpLsm4N (Schizosaccharomyces pombe); experiment: SPR; settings: 1 uM protein, weak and transient (abstract: no RNA binding), SPR (Biacore 3000): 20 mM Hepes pH 7.5, 100 mM NaCl, 25 C, recombinant protein, residues 1-91, protein details: N-terminal His6, label: 5' biotin

Row | Sequence | binding result [1] | binding result [2]
1 | UUUUUUUUUUUUUUU [U15 (FAM)] | binds more weakly | –
2 | UUUUUUUUUUUUUUU [U15 (biotin)] | – | binds more weakly
